According to doi:10.1101/2020.03.12.989277:

Target: T1, LGR5-BirA fusion (LGR5 with the bacterial biotin-ligase BirA at its C-terminus) (UniProt O75473)
T1 sequence: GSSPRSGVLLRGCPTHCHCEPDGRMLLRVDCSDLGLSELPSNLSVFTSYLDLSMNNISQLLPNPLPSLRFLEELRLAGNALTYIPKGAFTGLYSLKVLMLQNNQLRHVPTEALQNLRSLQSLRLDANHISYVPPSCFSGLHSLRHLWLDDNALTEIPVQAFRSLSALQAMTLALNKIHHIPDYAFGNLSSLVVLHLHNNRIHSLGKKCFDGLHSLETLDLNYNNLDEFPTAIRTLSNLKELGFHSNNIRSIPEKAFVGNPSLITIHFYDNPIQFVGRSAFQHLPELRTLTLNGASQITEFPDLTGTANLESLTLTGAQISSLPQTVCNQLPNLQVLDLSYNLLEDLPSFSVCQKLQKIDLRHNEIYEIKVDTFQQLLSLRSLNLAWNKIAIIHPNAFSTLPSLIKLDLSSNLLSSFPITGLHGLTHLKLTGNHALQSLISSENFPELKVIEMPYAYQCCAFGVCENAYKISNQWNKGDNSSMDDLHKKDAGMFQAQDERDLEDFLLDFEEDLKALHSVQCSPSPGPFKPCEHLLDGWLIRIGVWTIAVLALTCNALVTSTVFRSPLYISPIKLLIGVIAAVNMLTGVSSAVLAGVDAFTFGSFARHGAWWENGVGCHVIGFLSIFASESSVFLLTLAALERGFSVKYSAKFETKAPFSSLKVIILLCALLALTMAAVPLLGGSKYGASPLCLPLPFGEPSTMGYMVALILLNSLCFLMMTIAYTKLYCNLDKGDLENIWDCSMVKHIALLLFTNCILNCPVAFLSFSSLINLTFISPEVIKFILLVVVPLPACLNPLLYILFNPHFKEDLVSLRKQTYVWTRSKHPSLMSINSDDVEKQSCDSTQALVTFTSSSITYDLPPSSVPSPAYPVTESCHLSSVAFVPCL
Assay: proximity labelling

Substance | binding
AAK1 (from UniProt Q2M2I8 1-961) | binds
Dishevelled2 (DVL2) (from UniProt O14641 1-736) | binds
G-protein-coupled receptor kinase 2 (GRK2) (from UniProt P25098 1-689) (enzyme) | binds
PKA-adapter Akap8 (from UniProt O43823 1-692) | binds
PKA-adapter Akap12 (from UniProt Q02952 1-1782) | binds
β-arrestin (ARRB2) (from UniProt P32121 1-409) | binds

These are yes or no findings as the source states them, for the method shown. In cells and extracts the contact can be indirect. These calls come from enrichment with a bait or labelling near it, and not all partners need be listed. Tags and fused reporters may be left off the sequences shown.
